In test [1] the target is T1, HA-GCM1 (UniProt Q9NP62).
T1 sequence (looked up): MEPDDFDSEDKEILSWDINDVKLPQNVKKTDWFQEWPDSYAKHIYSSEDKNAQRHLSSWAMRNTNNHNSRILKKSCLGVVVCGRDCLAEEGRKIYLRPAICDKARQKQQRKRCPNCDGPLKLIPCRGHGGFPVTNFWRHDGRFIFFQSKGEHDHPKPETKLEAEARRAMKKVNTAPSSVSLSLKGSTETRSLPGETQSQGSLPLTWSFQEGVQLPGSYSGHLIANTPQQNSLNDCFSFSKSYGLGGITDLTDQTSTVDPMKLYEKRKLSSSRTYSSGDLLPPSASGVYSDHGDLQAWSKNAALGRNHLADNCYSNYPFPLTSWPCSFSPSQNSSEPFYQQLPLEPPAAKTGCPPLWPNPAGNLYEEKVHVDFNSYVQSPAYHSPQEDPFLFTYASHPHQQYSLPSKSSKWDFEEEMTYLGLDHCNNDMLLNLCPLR
The experiment in a line: co-immunoprecipitation in 293T cells transfected with pHA-GCM1 and pNotch1IC-FLAG.

Sequences of proteins named here, by UniProt entry; tags and fusion partners are left off. Residues count along the entry.
UniProt Q01705, residues 1744-2531: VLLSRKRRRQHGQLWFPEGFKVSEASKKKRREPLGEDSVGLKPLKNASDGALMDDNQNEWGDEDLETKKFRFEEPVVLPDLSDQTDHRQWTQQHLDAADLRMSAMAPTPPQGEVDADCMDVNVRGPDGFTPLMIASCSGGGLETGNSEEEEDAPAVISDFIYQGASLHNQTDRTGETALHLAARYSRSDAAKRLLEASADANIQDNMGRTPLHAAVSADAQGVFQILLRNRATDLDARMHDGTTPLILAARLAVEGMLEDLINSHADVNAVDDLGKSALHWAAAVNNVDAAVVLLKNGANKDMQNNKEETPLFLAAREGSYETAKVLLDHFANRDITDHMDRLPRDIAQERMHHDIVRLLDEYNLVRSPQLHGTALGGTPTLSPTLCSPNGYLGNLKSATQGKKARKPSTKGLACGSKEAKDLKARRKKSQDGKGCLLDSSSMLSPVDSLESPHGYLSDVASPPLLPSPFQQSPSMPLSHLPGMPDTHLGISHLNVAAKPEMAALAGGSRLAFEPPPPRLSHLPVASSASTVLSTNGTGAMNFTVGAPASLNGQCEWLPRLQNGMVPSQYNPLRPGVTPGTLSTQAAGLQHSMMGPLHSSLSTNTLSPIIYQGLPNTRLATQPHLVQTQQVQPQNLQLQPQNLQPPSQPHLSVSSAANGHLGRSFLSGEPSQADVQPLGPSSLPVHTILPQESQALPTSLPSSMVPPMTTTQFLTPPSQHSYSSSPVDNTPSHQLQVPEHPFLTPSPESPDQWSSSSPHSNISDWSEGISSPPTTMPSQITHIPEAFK

Test [2] addresses T1, HA-GCM1. The experiment in a line: co-immunoprecipitation and confocal microscopy in transfected 293T cells (figure legend).

No constants are given. Whether binding was seen depends on the method and setting. Binding seen in cells or lysates may run through a third protein. Some entries that bind do so weakly or less than the wild type. Tags and fused reporters may be left off the sequences shown.

“Notch1IC-FLAG (from UniProt Q01705 1744-2531)”: the binding entry in the test with HA-GCM1 [1] and with HA-GCM1 [2] was “binds” in each case.

Values taken from patent US20220155314A1, “TROPHOBLAST STEM CELL, METHODS OF PREPARATION AND USES THEREOF” (Academia Sinica, priority 2020, published 2022).
